Laboratory results: patent publication US7205162B1, “Artificial antibodies, method of producing the same and use thereof” (priority 1995, dated 2007)

Test: Scatchard plot analysis with radio-labelled ligand, anti-diazepam polymer

In the case of `CN1C(=O)CN=C(c2ccccc2)c2cc(Cl)ccc21` [Diazepam], the “population of sites, high affinity” value is reported as 0.0071 µmol/g and the “population of sites, low affinity” value is reported as 0.51 µmol/g.
